This passage reports binding results from paper PMC10380613.

Results are given in words; binding and its absence hold for the method and conditions named.

In this assay the target is MOY male-determining protein of Ceratitis capitata (Ceratitis capitata). As to the kind of experiment: two-hybrid; GAL4 system (Matchmaker, Clontech); baits in pGBT9 (Gal4 BD), preys in pGAD424 (Gal4 AD); S. cerevisiae AH109; HIS3 reporter, growth on SD/-His/-Leu/-Trp with 20 mM 3-AT, 30 °C; triplicate; each protein as bait and as prey.

B1: MOY male-determining protein of Ceratitis capitata (protein, UniProt A0A5B8HDM7 1-70)
chain: MDIGNISSKNTISLITIKYNSRTIKVITSKSRGMEPKFWGKMEIAMTENYFVEEKPLVYNFAIEYRKLMS
For B1, the binding result is given as “no binding”.
